Test results from doi:10.1101/2023.07.20.549975.
Results are given in words; binding and its absence hold for the method and conditions named. For part of these data: In cells and extracts the contact can be indirect. Where a sequence is shown, tags or fusion partners need not be part of it.

What was measured:
[1] = biological target: T1, CPK5, cLuc fusion for the split-luciferase assay (Arabidopsis thaliana) (UniProt Q38871); experiment: split reporter
T1 sequence: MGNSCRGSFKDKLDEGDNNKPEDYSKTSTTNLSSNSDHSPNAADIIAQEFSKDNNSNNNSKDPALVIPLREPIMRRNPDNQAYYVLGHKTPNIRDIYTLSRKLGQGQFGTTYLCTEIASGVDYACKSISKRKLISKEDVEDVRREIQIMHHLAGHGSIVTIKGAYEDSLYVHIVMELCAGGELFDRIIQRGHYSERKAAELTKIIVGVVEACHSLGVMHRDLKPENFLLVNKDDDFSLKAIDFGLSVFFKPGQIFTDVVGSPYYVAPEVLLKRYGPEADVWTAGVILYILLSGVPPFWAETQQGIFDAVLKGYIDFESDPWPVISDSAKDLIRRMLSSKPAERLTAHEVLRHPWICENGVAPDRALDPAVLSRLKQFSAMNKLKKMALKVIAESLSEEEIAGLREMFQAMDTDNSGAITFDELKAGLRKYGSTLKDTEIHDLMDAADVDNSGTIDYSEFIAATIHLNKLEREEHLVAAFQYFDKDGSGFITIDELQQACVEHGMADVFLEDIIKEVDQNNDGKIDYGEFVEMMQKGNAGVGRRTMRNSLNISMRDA

[2] = biological target: T2, calcium-dependent protein kinase 5 (CPK5), full-length, yeast two-hybrid fusion (Arabidopsis thaliana) (UniProt Q38871); experiment: two-hybrid
T2 sequence: T1 sequence

**Q.** With “AP2C1 (clade B PP2C), nLuc fusion for the split-luciferase assay (Arabidopsis thaliana)” as the substance, how does the binding [1] read?
**A.** no binding

**Q.** How did the binding [2] turn out when “HAB1, yeast two-hybrid fusion (Arabidopsis thaliana)” was run?
**A.** no binding

**Q.** “PP2C6-6 (clade E PP2C), nLuc fusion for the split-luciferase assay (Arabidopsis thaliana)” was tested. Which binding [1] did it give?
**A.** no binding
